# Test results: the supplement of paper PMC6411743
# ± gives the standard deviation of the averaged measurements. This is one part of the list.
# Tests used:
# Assay in all cases: NP40-soluble protein abundance relative to vehicle (solubility fold change) (ratio); higher = more soluble protein in presence of GTP
# CDKAL1 = target: T1, CDKAL1 (UniProt Q5VV42)
# T1 sequence (whole entry): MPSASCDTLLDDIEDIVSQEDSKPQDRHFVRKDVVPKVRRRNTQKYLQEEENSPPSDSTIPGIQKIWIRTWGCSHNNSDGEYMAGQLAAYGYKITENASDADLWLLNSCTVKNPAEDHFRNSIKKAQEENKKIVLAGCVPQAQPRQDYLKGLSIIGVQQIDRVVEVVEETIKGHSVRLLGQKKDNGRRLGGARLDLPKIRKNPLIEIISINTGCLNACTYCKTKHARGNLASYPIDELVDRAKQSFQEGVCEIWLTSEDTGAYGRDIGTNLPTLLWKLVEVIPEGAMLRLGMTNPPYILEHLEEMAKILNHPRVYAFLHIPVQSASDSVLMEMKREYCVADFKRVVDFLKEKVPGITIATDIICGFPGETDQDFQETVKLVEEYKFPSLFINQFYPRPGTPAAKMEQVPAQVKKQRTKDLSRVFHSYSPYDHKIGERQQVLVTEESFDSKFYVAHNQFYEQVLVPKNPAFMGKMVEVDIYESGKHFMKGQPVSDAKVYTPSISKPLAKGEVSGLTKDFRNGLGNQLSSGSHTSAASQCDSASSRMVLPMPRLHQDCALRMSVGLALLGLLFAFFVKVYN
# Outline: (§1)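 In three independent experiments, Jurkat crude lysate made by Dounce homogenisation was treated for 10 min at room temperature and then 3 min at 37 °C with eight concentrations ranging from 0.1 to 10 mM. It was then solubilised with 0.8% NP40 plus benzonase for 60 min at 4 °C and ultracentrifuged. The supernatant was TMT-labelled for LC-MS/MS, and each value is the fold change against the detergent-processed vehicle for the same replicate, using vsn-normalised intensities.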
# ISCA2 = target: T2, ISCA2 (UniProt Q86U28)
# T2 sequence (whole entry): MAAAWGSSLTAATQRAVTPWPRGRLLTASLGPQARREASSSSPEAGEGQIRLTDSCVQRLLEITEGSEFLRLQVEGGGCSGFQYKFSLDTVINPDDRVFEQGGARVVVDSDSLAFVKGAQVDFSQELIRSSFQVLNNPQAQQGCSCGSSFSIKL
# Outline: as §1
# NCR3LG1 = target: T3, NCR3LG1 (UniProt Q68D85)
# T3 sequence (whole entry): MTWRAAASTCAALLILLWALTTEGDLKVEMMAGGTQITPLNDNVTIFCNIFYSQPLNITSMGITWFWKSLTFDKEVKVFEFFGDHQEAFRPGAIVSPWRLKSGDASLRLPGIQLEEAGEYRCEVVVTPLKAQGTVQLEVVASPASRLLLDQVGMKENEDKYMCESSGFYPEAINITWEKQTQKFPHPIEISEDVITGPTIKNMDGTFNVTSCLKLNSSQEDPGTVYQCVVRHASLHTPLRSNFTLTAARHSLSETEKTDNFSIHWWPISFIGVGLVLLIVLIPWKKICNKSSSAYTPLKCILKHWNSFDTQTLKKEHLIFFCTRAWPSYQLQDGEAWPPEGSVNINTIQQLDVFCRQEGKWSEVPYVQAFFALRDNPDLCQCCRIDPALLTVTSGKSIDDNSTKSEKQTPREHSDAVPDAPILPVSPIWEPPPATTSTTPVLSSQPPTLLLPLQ
# Outline: as §1
# PRPF38B = target: T4, PRPF38B (UniProt Q5VTL8)
# T4 sequence (whole entry): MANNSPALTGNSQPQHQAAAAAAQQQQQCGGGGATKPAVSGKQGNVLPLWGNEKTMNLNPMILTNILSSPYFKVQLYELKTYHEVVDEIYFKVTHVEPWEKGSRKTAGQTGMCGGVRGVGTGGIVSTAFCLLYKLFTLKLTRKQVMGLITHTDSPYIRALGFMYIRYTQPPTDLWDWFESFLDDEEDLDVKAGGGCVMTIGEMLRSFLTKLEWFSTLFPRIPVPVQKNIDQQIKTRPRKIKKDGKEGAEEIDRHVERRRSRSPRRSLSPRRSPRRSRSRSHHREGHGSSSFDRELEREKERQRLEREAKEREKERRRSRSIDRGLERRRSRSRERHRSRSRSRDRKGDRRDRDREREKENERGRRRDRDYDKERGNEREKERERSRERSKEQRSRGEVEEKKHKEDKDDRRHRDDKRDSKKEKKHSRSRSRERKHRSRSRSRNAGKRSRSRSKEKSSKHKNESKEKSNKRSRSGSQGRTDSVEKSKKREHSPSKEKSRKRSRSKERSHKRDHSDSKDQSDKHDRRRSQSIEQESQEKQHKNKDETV
# Outline: as §1
# [1] = target: T5, Q5TBI2 and related entries (UniProt Q8NDD1)
# T5 sequence (whole entry): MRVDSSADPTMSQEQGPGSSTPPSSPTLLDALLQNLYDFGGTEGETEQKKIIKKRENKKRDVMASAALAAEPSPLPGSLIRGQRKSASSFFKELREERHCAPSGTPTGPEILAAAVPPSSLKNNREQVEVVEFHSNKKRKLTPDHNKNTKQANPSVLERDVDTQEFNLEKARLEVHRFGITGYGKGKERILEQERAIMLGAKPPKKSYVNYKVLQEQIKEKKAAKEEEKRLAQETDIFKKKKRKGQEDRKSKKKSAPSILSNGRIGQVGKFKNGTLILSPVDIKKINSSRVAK
# Outline: as §1
structure (smiles),measurement,setting,value
Nc1nc2c(ncn2[C@@H]2O[C@H](COP(=O)(O)OP(=O)(O)OP(=O)(O)O)[C@@H](O)[C@H]2O)c(=O)[nH]1 [guanosine triphosphate],NP40-soluble protein abundance,CDKAL1; concentration: 0.1mM,1.03 ± 0.016
same,NP40-soluble protein abundance,CDKAL1; concentration: 0.5mM,1.05 ± 0.047
same,NP40-soluble protein abundance,CDKAL1; concentration: 1mM,1.01 ± 0.05
same,NP40-soluble protein abundance,CDKAL1; concentration: 2mM,1.03 ± 0.035
same,NP40-soluble protein abundance,CDKAL1; concentration: 4mM,1.02 ± 0.022
same,NP40-soluble protein abundance,CDKAL1; concentration: 6mM,1.04 ± 0.049
same,NP40-soluble protein abundance,CDKAL1; concentration: 8mM,1.01 ± 0.029
same,NP40-soluble protein abundance,CDKAL1; concentration: 10mM,1.02 ± 0.04
same,NP40-soluble protein abundance,ISCA2; concentration: 0.1mM,1.05 ± 0.027
same,NP40-soluble protein abundance,ISCA2; concentration: 0.5mM,0.933 ± 0.039
same,NP40-soluble protein abundance,ISCA2; concentration: 1mM,0.932 ± 0.052
same,NP40-soluble protein abundance,ISCA2; concentration: 2mM,0.965 ± 0.097
same,NP40-soluble protein abundance,ISCA2; concentration: 4mM,0.915 ± 0.086
same,NP40-soluble protein abundance,ISCA2; concentration: 6mM,0.911 ± 0.071
same,NP40-soluble protein abundance,ISCA2; concentration: 8mM,0.861 ± 0.049
same,NP40-soluble protein abundance,ISCA2; concentration: 10mM,0.902 ± 0.064
same,NP40-soluble protein abundance,NCR3LG1; concentration: 0.1mM,1.11 ± 0.15
same,NP40-soluble protein abundance,NCR3LG1; concentration: 0.5mM,1.22 ± 0.3
same,NP40-soluble protein abundance,NCR3LG1; concentration: 1mM,1.17 ± 0.14
same,NP40-soluble protein abundance,NCR3LG1; concentration: 2mM,1.23 ± 0.26
same,NP40-soluble protein abundance,NCR3LG1; concentration: 4mM,1.15 ± 0.2
same,NP40-soluble protein abundance,NCR3LG1; concentration: 6mM,1.22 ± 0.29
same,NP40-soluble protein abundance,NCR3LG1; concentration: 8mM,1.15 ± 0.11
same,NP40-soluble protein abundance,NCR3LG1; concentration: 10mM,0.978 ± 0.12
same,NP40-soluble protein abundance,PRPF38B; concentration: 0.1mM,1.07 ± 0.11
same,NP40-soluble protein abundance,PRPF38B; concentration: 0.5mM,1.09 ± 0.065
same,NP40-soluble protein abundance,PRPF38B; concentration: 1mM,1.13 ± 0.047
same,NP40-soluble protein abundance,PRPF38B; concentration: 2mM,0.998 ± 0.083
same,NP40-soluble protein abundance,PRPF38B; concentration: 4mM,1.02 ± 0.093
same,NP40-soluble protein abundance,PRPF38B; concentration: 6mM,0.985 ± 0.08
same,NP40-soluble protein abundance,PRPF38B; concentration: 8mM,1.16 ± 0.083
same,NP40-soluble protein abundance,PRPF38B; concentration: 10mM,1.07 ± 0.074
same,NP40-soluble protein abundance,[1]; concentration: 0.1mM,0.993 ± 0.035
same,NP40-soluble protein abundance,[1]; concentration: 0.5mM,0.966 ± 0.023
same,NP40-soluble protein abundance,[1]; concentration: 1mM,1.07 ± 0.057
same,NP40-soluble protein abundance,[1]; concentration: 2mM,1.18 ± 0.05

# Reprinted at random: two entries already listed
structure (smiles),measurement,setting,value
Nc1nc2c(ncn2[C@@H]2O[C@H](COP(=O)(O)OP(=O)(O)OP(=O)(O)O)[C@@H](O)[C@H]2O)c(=O)[nH]1 [guanosine triphosphate],NP40-soluble protein abundance,PRPF38B; concentration: 10mM,1.07 ± 0.074
same,NP40-soluble protein abundance,CDKAL1; concentration: 2mM,1.03 ± 0.035
